From PubChem BioAssay record AID1347106 (NCATS, 2019).

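Wild-type Hh fibroblast control cells treated with compounds for 48 h, with viability read as CellTiter-Glo luminescence and fitted into a concentration-response curve. Each compound was tested as a dilution series reaching a top concentration of about 46 µM. The number is the fitted half-maximal potency for cytotoxicity; a lower value means a more potent cell-killing compound. Calls come from curve class and a score: actives score 40 to 100 and inconclusives 1 to 39, so weak, poorly fitted or single-point curves are inconclusive.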

Values are in nM. Every entry below has the call inconclusive. Only part of the assay is shown, chiefly results filed as inconclusive. Potencies fitted to partial, single-point or poorly fitting curves are rough. Some entries filed as inconclusive have a full curve. Activity scores are not listed here.

SMILES | fitted potency (nM) | curve as filed
COc1cc([C@@H]2c3cc4c(cc3[C@H](O)[C@H]3COC(=O)[C@@H]23)OCO4)cc(OC)c1OC | 589.9 | cytotoxic, full curve
CNC(=O)c1c(-c2ccc(F)cc2)oc2cc(N(CCO)S(C)(=O)=O)c(C3CC3)cc12 | 20930 | cytotoxic, single point
O=c1c(-c2ccc(O)cc2)coc2cc(OC3O[C@H](CO)[C@H](O)[C@H](O)[C@H]3O)cc(O)c12 (stereo partly drawn) | 11770 | cytotoxic, full curve, poor fit
COc1ccc([C@@H]2CNC(=O)C2)cc1OC1CCCC1 | 935 | cytotoxic, full curve
Cn1c(=O)c(F)c(Nc2ccc(I)cc2F)c2c(=O)n(C[C@@H](O)CO)cnc21 | 9350 | cytotoxic, partial curve
CCCCCCCCCCCC[N+](C)(C)Cc1ccccc1 | 5309 | cytotoxic, single point
COc1cc2ncnc(-n3nc(-c4ccccn4)nc3N)c2cc1OC | 18654 | cytotoxic, partial curve
CC(=O)O[C@]1(C(C)=O)CC[C@H]2[C@@H]3C=C(Cl)C4=CC(=O)[C@@H]5C[C@H]5[C@]4(C)[C@@H]3CC[C@@]21C | 37221 | cytotoxic, single point
O=C1NC(=O)[C@@H](c2cn3c4c(cccc24)CCC3)[C@H]1c1c[nH]c2ccccc12 | 3722 | cytotoxic, full curve, poor fit
CCc1cccc(CC)c1NC(=O)N1Cc2[nH]nc(NC(=O)c3ccc(N4CCN(C)CC4)cc3)c2C1 | 1177 | cytotoxic, full curve, poor fit
COc1ccc2[nH]cc(CCNC(C)=O)c2c1 | 2661 | cytotoxic, partial curve, poor fit
CC(C)(C)c1nc(-c2cccc(NS(=O)(=O)c3c(F)cccc3F)c2F)c(-c2ccnc(N)n2)s1 | 935 | cytotoxic, full curve, poor fit
CCn1nnc2c(N3CCOCC3)nc(-c3ccc(NC(=O)Nc4ccc(C(=O)N5CCN(C)CC5)cc4)cc3)nc21 | 29.6 | cytotoxic, full curve
COc1cc(Nc2nc3ccccc3nc2NS(=O)(=O)c2ccc(NC(=O)c3ccc(C)c(OC)c3)cc2)cc(OC)c1 | 13206 | cytotoxic, partial curve
O=c1c(O)c(-c2ccc(O)c(O)c2)oc2cc(O)ccc12 | 37221 | cytotoxic, single point
CCCCCCCCCCCCCCCC[N+](C)(C)Cc1ccccc1 | 33498 | cytotoxic, partial curve, poor fit
CNS(=O)(=O)CCc1ccc2[nH]cc(C3CCN(C)CC3)c2c1 | 1321 | cytotoxic, full curve
CS(=O)(=O)CCNCc1ccc(-c2ccc3ncnc(Nc4ccc(OCc5cccc(F)c5)c(Cl)c4)c3c2)o1 | 132.1 | cytotoxic, full curve, poor fit
CNC(=O)c1ccccc1Nc1nc(Nc2ccc(N3CCOCC3)cc2OC)ncc1Cl | 742.7 | cytotoxic, full curve
CN1C(C(=O)Nc2ccccn2)=C(O)c2sc(Cl)cc2S1(=O)=O | 20930 | cytotoxic, partial curve, poor fit
CCS(=O)(=O)c1cccc(-c2cc(C(=O)NC3CCN(C)CC3)c(C)c3[nH]c4ncc(C)cc4c23)c1 | 4686 | cytotoxic, partial curve
CCCS(=O)c1ccc2nc(NC(=O)OC)[nH]c2c1 (stereo not drawn) | 33498 | cytotoxic, single point
CN1N=C(N)c2cn([C@@H]3O[C@H](COP(=O)(O)O)[C@@H](O)[C@@H]3O)c3ncnc1c23 | 166.3 | cytotoxic, full curve
CO[C@H]1CCC(O[C@H]2C[C@H]([C@]3(C)CC[C@]4(C[C@H](O)[C@@H](C)[C@@H]([C@@H](C)C=C(C)C(=O)[C@H](C)C[C@H](C)C(=O)O)O4)O3)O[C@]3(O[C@@H]([C@H]4O[C@@](O)(CO)[C@H](C)C[C@H]4C)C[C@H]3C)[C@H]2C)O[C@H]1C (stereo partly drawn) | 9350 | cytotoxic, full curve, poor fit
CC1=C(CC(=O)O)c2cc(F)ccc2C1=Cc1ccc(S(C)=O)cc1 (stereo not drawn) | 16626 | cytotoxic, single point
CC1(C)O[C@H]2CC(=O)OC[C@]23[C@H]2CC[C@@]4(C)[C@H](c5ccoc5)OC(=O)[C@H]5O[C@]54[C@]2(C)C(=O)C[C@@H]13 | 37221 | cytotoxic, partial curve, poor fit
C[C@@H]1O[C@@H](O[C@H]2C[C@@H](O)[C@]3(CO)[C@H]4[C@H](O)C[C@]5(C)[C@@H](C6=CC(=O)OC6)CC[C@]5(O)[C@@H]4CC[C@]3(O)C2)[C@H](O)[C@H](O)[C@H]1O | 66.8 | cytotoxic, full curve
CO[C@H]1C=CO[C@@]2(C)Oc3c(C)c(O)c4c(O)c(c(/C=N/N5CCN(C)CC5)c(O)c4c3C2=O)NC(=O)/C(C)=C\C=C[C@H](C)[C@H](O)[C@@H](C)[C@@H](O)[C@@H](C)[C@H](OC(C)=O)[C@@H]1C | 2986 | cytotoxic, full curve, poor fit
CCCCCCOC(=O)NC(=N)c1ccc(NCc2nc3cc(C(=O)N(CCC(=O)OCC)c4ccccn4)ccc3n2C)cc1 | 3350 | cytotoxic, partial curve, poor fit
CC(C)(O)C=CC(=O)[C@](C)(O)[C@H]1[C@H](O)C[C@]2(C)[C@@H]3CC=C4[C@@H](C=C(O)C(=O)C4(C)C)[C@]3(C)C(=O)C[C@@]12C | 132.1 | cytotoxic, full curve
Clc1ccc(Nc2nnc(Cc3ccncc3)c3ccccc23)cc1 | 2635 | cytotoxic, partial curve, poor fit
Cc1cc(C2CCCCC2)n(O)c(=O)c1 | 2093 | cytotoxic, full curve, poor fit
Cc1cccc(C)c1NC(=O)CN1CCN(CCCC(c2ccc(F)cc2)c2ccc(F)cc2)CC1 | 33498 | cytotoxic, single point
Cc1c(-c2ccc(O)cc2)n(Cc2ccc(OCCN3CCCCCC3)cc2)c2ccc(O)cc12 | 16788 | cytotoxic, single point
CCN(CC)CCNC(=O)c1c(C)[nH]c(/C=C2\C(=O)Nc3ccc(F)cc32)c1C | 23715 | cytotoxic, single point
CN(C)NC(=O)CCC(=O)O | 11770 | cytotoxic, partial curve, poor fit
Nc1c(Cl)c(Cl)c(Cl)c(Cl)c1Cl | 12197 | cytotoxic, partial curve, poor fit
CC(=O)N(O)CCCCCNC(=O)CCC(=O)N(O)CCCCCNC(=O)CCC(=O)N(O)CCCCCN | 33498 | cytotoxic, single point

4 of the entries, repeated:

| SMILES | fitted potency (nM) | curve as filed |
|---|---|---|
| `CC(=O)N(O)CCCCCNC(=O)CCC(=O)N(O)CCCCCNC(=O)CCC(=O)N(O)CCCCCN` | 33498 | cytotoxic, single point |
| `CCCCCCCCCCCCCCCC[N+](C)(C)Cc1ccccc1` | 33498 | cytotoxic, partial curve, poor fit |
| `CCCCCCCCCCCC[N+](C)(C)Cc1ccccc1` | 5309 | cytotoxic, single point |
| `Clc1ccc(Nc2nnc(Cc3ccncc3)c3ccccc23)cc1` | 2635 | cytotoxic, partial curve, poor fit |